Values of other authors in US20200407398A1, “Short Proline-Rich Lipopeptide Potentiates Minocycline and Rifampicin Against Multidrug-and Extensively Drug-Resistant Pseudomonas Aeruginosa” (priority 2018, published 2020).
At least one compound was matched to its structure with a doubt left.

Tested on: A. baumannii clinical isolates
Conditions: global survey; CLSI breakpoint ≤4 μg/ml for susceptibility; cited from earlier work

For CN(C)c1ccc(O)c2c1C[C@H]1C[C@H]3[C@H](N(C)C)C(O)=C(C(N)=O)C(=O)[C@@]3(O)C(O)=C1C2=O [minocycline], the clinical isolates susceptible is listed as “over 70%”.
